{"source": "patent US12064509B2", "about": "“Enema for rectal application” (Dr. Falk Pharma GmbH, priority 2015, dated 2024)", "key": {"[1]": {"test_system": "patients with active ulcerative colitis", "test": "Placebo-controlled randomized double-blind multicenter parallel group comparative study (Japic CTI-132294), rectal budesonide foam", "format": "in vivo, human", "conditions": "2 mg per dose, 6 weeks", "protocol": "Dose responsiveness, efficacy and safety are investigated for patients with active ulcerative colitis when budesonide 2 mg is rectally administered once a day or twice a day for 6 weeks by a double-blind comparative study with placebo as a control (clinical trial number: Japic CTI-132294). For the trial, an aerosol with fixed dose injection type for rectal injection (rectal foaming agent) is used as a test drug, in which 25 mL (1.35 g) of white creamy foam containing 2 mg of budesonide is released by one injection. As a remission induction therapeutic agent of ulcerative colitis in active phase where the lesion is confined to the rectum and sigmoid colon, the aerosol for rectal injection is approved in Europe at a dosage and dose of budesonide 2 mg once a day (trade name: Budenofalk 2 mg/dose rectal foam, manufactured by Dr. Falk Pharma GmbH). […] The subjects are ulcerative colitis patients in active phase, and are divided into a group administered the test drug once a day (hereinafter, once a day group, 54 cases), a group administered the test drug twice a day (hereafter, twice a day group, 55 cases), and a group administered the control drug (hereinafter, placebo group, 56 cases). […] Patients with MMDAI endoscopic score of 0 are evaluated as mucosal healing. […]"}, "[2]": {"test_system": "patient group of ulcerative colitis", "conditions": "2 mg twice a day for 2 weeks, then 2 mg once a day for 4 weeks; cited from earlier work"}}, "note": "For at least one compound, name, drawing or mass did not settle the structure."}
{"compound": "CCCC1O[C@@H]2C[C@H]3[C@@H]4CCC5=CC(=O)C=C[C@]5(C)[C@H]4[C@@H](O)C[C@]3(C)[C@]2(C(=O)CO)O1", "note": "(mixture of isomers) [Budesonide, (+)-[(RS)-16α,17α-Butylidenedioxy-11β,21-dihydroxy-1,4-pregnadiene-3,20-dione]]", "values": [{"measurement": "mucosal healing rate, twice a day group compared with once a day group", "setting": "[1]", "result": "significantly higher"}, {"measurement": "effect of improving modified Mayo Disease Activity Index (MMDAI) to 0 or 1, versus placebo administered group", "setting": "[2]", "result": "significantly higher"}]}
